The nature of data set [1]: Intrinsic Clearance. Particulars: mouse liver microsomes. (In general: Liver microsomes are a subcellular fraction often used to study metabolism.)
Data set [2] can be described thus: Plasma Half-life. The conditions noted are these: BALB/c, mouse, pH 7.4.
Data set [3] in a line: in vitro. The conditions noted are these: PAMPA, pH 7.4. (In general: In PAMPA a lipid-coated filter parts donor from acceptor wells.)

Take `CCNC(=O)C[C@@H]1N=C(c2ccc(Cl)cc2)c2cc(OC)ccc2-n2c(C)nnc21` [I-BET762, reference compound]: the CL int in data set [1] was found to be 1.3 ml min^–1 g^–1. The half-life at 50 µM in data set [2] is greater than 3 h. This compound gave a Papp in data set [3] of 25 nm/s.

Usually half-life stands for the time in which the quantity being followed falls by half. A higher half-life goes with slow decline. One may read the Papp as a coefficient for how fast a substance crosses the barrier.

Source of the values: paper PMC5909127, “Optimization of a “bump-and-hole” approach to allele-selective BET bromodomain inhibition” (Chemical Science, 2018).
